# For at least one compound, name, drawing or mass did not settle the structure.
# System: rat colon tissue
# Experiment: Relaxation of KCl (80 mM)-induced contractions in rat colon tissue (tissue bath)
# Assay type: cell-based
# Procedure: Rat colon tissue was prepared and mounted in a tissue bath by standard methods familiar to those skilled in the art. The physiological medium contained KCl at a concentration of 80 mM, which produces contractions of the colon tissue. […] Potency was expressed as the concentration producing 50% of […] (IC50) or as the negative logarithm of the IC50 (pIC50).
# Other compounds were tested for their ability to relax the KCl contractions, or block the relaxing action of verapamil.
structure (smiles),measurement,value
Nc1cc(N2CCCCC2)nc(N)[n+]1[O-] [Minoxidil],ability to relax the KCl contractions,did not relax the KCl contractions

# Source: patent US6849661B2, “Treatment of abnormal increases in gastrointestinal motility with (R)-verapamil” (AGI Therapeutics, Ltd., priority 2002, dated 2005)
